Reference: PubChem BioAssay AID1259331 (Drosophila RNAi Screening Center, 2017)

Test: 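Knock-downs that alter ATP level after a high zinc chloride dose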 (primary screen)
Cells: Drosophila S2R+ cells
Reagents: long dsRNA against Drosophila genes
Time to read-out: 5 days (4 days knock-down, then 1 day zinc)
Treatment: zinc chloride at 15 mM final level for 1 day
Measurement: 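Luminescent ATP assay standing in for viability; Z score is the mean over three replicate plates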
Scale: mean Z score: higher = more ATP than other wells, better survival under zinc; ATP luminescence: higher = more ATP, more viable cells
Call rule: 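a reagent is called a hit when its Z score is above 1.5 or below -1.5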
Calls: active = hit, ATP up or down; inactive = not a hit
Here is an unselected part of about 3,100 reagents. Of all reagents, 126 (4.1%) got an active call. 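Calls are per reagent; zinc was so toxic that few knock-downs lowered ATP further, so most hits raise ATP.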 Raw values vary from plate to plate and are shown uncorrected. A number with no mark means an inactive call. A plus sign joins genes that one reagent is predicted to hit. Not given: the amount of reagent.

| mean Z score | ATP luminescence, replicate 1 | ATP luminescence, replicate 2 | gene | amplicon |
| --- | --- | --- | --- | --- |
| -0.118 | 41496 | 44788 | CG8028 | DRSC20075 |
| -0.259 | 42885 | 42405 | CG11601 | DRSC00318 |
| 0.0802 | 56311 | 60135 | CG11601 | DRSC39635 |
| 0.184 | 42262 | 48132 | CG30160 + Tsp42Eb | DRSC04961 |
| -0.179 | 36842 | 42643 | CG30160 + Tsp42Eb | DRSC06791 |
| -0.0643 | 39936 | 47839 | cac | DRSC20354 |
| -0.038 | 43828 | 48185 | cac | DRSC39146 |
| -0.142 | 41616 | 43838 | zyd | DRSC20716 |
| -0.561 | 47171 | 31145 | zyd | DRSC39493 |
| -0.364 | 62776 | 65931 | MsR1 | DRSC08615 |
| 0.251 | 59740 | 60855 | MsR1 | DRSC26467 |
| -0.306 | 35839 | 50515 | CG6763 | DRSC16110 |
| 1.53 (active) | 84598 | 89721 | CG6763 | DRSC24299 |
| 0.0622 | 48930 | 46023 | CG13810 | DRSC22838 |
| -0.0834 | 56122 | 45552 | CG13810 | DRSC27859 |
| 0.759 | 55556 | 54682 | CG15814 | DRSC19730 |
| -0.47 | 50549 | 51926 | CG15814 | DRSC39869 |
| 3.27 (active) | 1.10e5 | 94027 | CG17646 | DRSC00507 |
| -0.0358 | 58368 | 62295 | CG17646 | DRSC39859 |
| -0.451 | 34158 | 49898 | GC1 | DRSC15322 |
| -0.424 | 53224 | 56534 | GC1 | DRSC25627 |
| 0.0271 | 58439 | 54645 | CG10702 | DRSC02097 |
| -0.276 | 45371 | 44377 | CG10702 | DRSC36848 |
| -0.275 | 46571 | 41908 | CG10702 | DRSC36849 |

Copied from the list.
CG6763 [DRSC16110], mean Z score = -0.306
CG10702 [DRSC02097], ATP luminescence, replicate 2: 54645
CG11601 [DRSC00318], mean Z score = -0.259
CG30160 + Tsp42Eb [DRSC04961], mean Z score = 0.184
CG6763 [DRSC24299], mean Z score = 1.53 (active)
CG13810 [DRSC27859], mean Z score = -0.0834

Further entries follow.
| mean Z score | ATP luminescence, replicate 1 | ATP luminescence, replicate 2 | gene | amplicon |
| --- | --- | --- | --- | --- |
| -0.241 | 36478 | 55299 | Syx1A | DRSC15359 |
| -0.0769 | 42011 | 51869 | Syx1A | DRSC21554 |
| -0.314 | 61335 | 60340 | CG2901 | DRSC18239 |
| 0.082 | 51355 | 54579 | CG2901 | DRSC39506 |
| 0.3 | 50189 | 52778 | CG13575 | DRSC22851 |
| 0.682 | 62981 | 56551 | CG13575 | DRSC39524 |
| 0.0918 | 35136 | 33353 | Syx17 | DRSC08591 |
| -0.649 | 47874 | 62861 | Ir7d | DRSC18010 |
| -0.733 | 42591 | 49359 | CG10413 | DRSC02052 |
| -0.228 | 35699 | 53312 | PK1-R | DRSC16577 |
| 0.0406 | 65852 | 67612 | CG34433 | DRSC15077 |
| 0.294 | 46057 | 46072 | CG12990 | DRSC19510 |
| -0.488 | 28980 | 27595 | Culd | DRSC10262 |
| 0.358 | 69144 | 63907 | Culd | DRSC39624 |
| -0.345 | 43862 | 39696 | Or33b | DRSC03387 |
| 0.0748 | 45457 | 49195 | Atpalpha | DRSC14119 |
| 0.362 | 54888 | 47596 | Atpalpha | DRSC39134 |
| 0.0685 | 44274 | 49520 | Abcd1 | DRSC17157 |
| 0.0265 | 59843 | 60119 | Abcd1 | DRSC39677 |
| -0.404 | 27456 | 30867 | CG8399 | DRSC07163 |
| 0.139 | 58746 | 57572 | CG8399 | DRSC39793 |
| -0.164 | 70767 | 58883 | Chs2 | DRSC11830 |
| -0.0657 | 50721 | 55522 | Chs2 | DRSC39425 |
